Measurements from US20220169714A1 (published 2022).
No constants are given. Whether binding was seen depends on the method and setting. Some entries that bind do so weakly or less than the wild type.

The chains behind the UniProt entries cited, without tags or fusion partners. Residues count along the entry.
UniProt P02769, residues 25-607: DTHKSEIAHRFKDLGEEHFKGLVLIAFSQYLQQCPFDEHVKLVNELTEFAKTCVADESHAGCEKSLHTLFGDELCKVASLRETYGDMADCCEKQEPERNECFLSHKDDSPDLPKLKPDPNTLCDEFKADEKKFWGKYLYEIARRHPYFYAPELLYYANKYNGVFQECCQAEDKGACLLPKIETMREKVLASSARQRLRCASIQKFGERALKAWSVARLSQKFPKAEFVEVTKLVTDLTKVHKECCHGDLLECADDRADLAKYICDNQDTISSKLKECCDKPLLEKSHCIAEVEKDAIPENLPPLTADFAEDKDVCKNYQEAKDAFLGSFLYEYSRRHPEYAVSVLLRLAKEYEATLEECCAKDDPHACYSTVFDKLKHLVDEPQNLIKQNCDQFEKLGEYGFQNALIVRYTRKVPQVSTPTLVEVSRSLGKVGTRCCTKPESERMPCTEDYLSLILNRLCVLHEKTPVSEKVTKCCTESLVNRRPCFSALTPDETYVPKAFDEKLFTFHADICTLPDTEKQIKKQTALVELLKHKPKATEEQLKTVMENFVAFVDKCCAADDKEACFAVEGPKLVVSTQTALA

Key:
[1] = target: T1, recombinant human CXCL1 protein (human, UniProt P09341 35-107); test: Western blot of human CXCL1 (lanes 1 and 2) probed with Hum2401 IgG, anti-human (H+L) HRP, TMB
T1 sequence: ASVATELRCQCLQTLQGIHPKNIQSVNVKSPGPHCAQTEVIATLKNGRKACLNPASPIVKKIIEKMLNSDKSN

[2] = target: T1, recombinant human CXCL1 protein; test: Western blot of human CXCL1 (lanes 1 and 2) probed with HumBB2401 IgG, anti-human (H+L) HRP, TMB
[3] = target: T1, recombinant human CXCL1 protein; test: ELISA (CXCL1 coated at 30 ng per well, anti-Myc HRP) and Western blot
BSA (bovine) = BSA (bovine) (UniProt P02769); test: ELISA on coated BSA, scFv at 10 and 2 ug/mL, anti-Myc HRP, TMB
[4] = target: T1, recombinant human CXCL1 protein; test: ELISA on coated human CXCL1 against coated BSA, scFv at 10 and 2 ug/mL, anti-Myc HRP, TMB
Procedure: The human CxCL1 protein was coated onto 96-well, 30 ng for well at 4° C. overnight. The plate was blocked by 3% skim milk in PBS 2 h at room temperature. The plate was washed 3 times with PBST and applied anti-human CXCL1 humanized version scFv antibodies at different dilution concentration. The anti-Myc mouse monoclonal antibody with HRP conjugate antibody was applied and developed with TMB solution.

[5] = target: T1, recombinant human CXCL1 protein; test: ELISA and Western blot
[6] = target: T1, recombinant human CXCL1 protein; test: Western blot of human CXCL1 (lane 1) probed with HumBB2401scFv, anti-c-Myc antibody and HRP secondary, TMB

B1: Hum2401 IgG antibody (antibody, V domains shown)
VH: QVQLVESGGGLVQPGGSLRLSCKASGYTFTSYYIYWVRQAPGKGLEWIGEIDPSHGGPTFNEKFKNRFTISRDNSKNTLYLQMNSLRAEDTAVYYCTRESGTGAMDYWGQGTLVTVSS
VL: DIQMTQSPSSLSASVGDRATISCKASQSVDYDGDSYVNWYQQKPGKAPKLLIYAASNLESGIPSRFSGSGSGTDFTLTISSLQPEDFATYYCQQSSEDPWTFGQGTKVEIKR
With B1 the binding [1] was “binds”.

B2: HumBB2401 IgG antibody (antibody, V domains shown)
VH: QVQLVQSGAEVKKPGASVKLSCKASGYTFTSYYIYWVRQAPGQGLEWIGEIDPSHGGPTFNEKFKNRATLTVDKSKSTAYMELSSLRSEDTAVYYCTRESGTGAMDYWGQGTLVTVSS
VL: DIQMTQSPSSLSASVGDRATISCKASQSVDYDGDSYVNWYQQKPGKAPKLLIYAASNLESGIPSRFSGSGSGTDFTLTISSLQPEDFATYYCQQSSEDPWTFGQGTKVEIKR
For B2, the binding [2] was “binds”.

B3: HumBB2401 scFv (humanized version 1) (scFv)
scFv: QVQLVQSGAEVKKPGASVKLSCKASGYTFTSYYIYWVRQAPGQGLEWIGEIDPSHGGPTFNEKFKNRATLTVDKSKSTAYMELSSLRSEDTAVYYCTRESGTGAMDYWGQGTLVTVSSGGGGSGGGGSGGGARGGGGSDIQMTQSPSSLSASVGDRATISCKASQSVDYDGDSYVNWYQQKPGKAPKLLIYAASNLESGIPSRFSGSGSGTDFTLTISSLQPEDFATYYCQQSSEDPWTFGQGTKVEIKR
For B3, the binding [3] was “binds”, the binding (BSA (bovine)) was “no binding (tested: 10 ug/mL)” and the binding [4] was “binds”. For the same binder, the binding [5] was “binds” and the binding [6] was “binds”.

B4: HUM2401-ScFv_1 (humanized version 2) (scFv)
scFv: QVQLVESGGGLVQPGGSLRLSCKASGYTFTSYYIYWVRQAPGKGLEWIGEIDPSHGGPTFNEKFKNRFTISRDNSKNTLYLQMNSLRAEDTAVYYCTRESGTGAMDYWGQGTLVTVSSGGGGSGGGGSGGGARGGGGSDIQMTQSPSSLSASVGDRATISCKASQSVDYDGDSYVNWYQQKPGKAPKLLIYAASNLESGIPSRFSGSGSGTDFTLTISSLQPEDFATYYCQQSSEDPWTFGQGTKVEIKR
notes: Detected through a c-Myc tag; also called HumH2401scFv; Hum HL2401_scFv
For B4, the binding (BSA (bovine)) was “no binding (tested: 10 ug/mL)”.
